Out of some 53,000 sequences screened, about 3,700 (7%) were called active.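 The calls were made as follows: active = gene knockdowns whose robust z-score for IL-1 alpha signal is at least 2 or at most -2, so actives lie on both sides; inactive = the rest.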 The list shows a part of the results.
assay: Components of the Cytosolic LPS Sensing Pathway: Gene Identification via Genome-wide siRNA Screen; conditions: RAW264.7 macrophages, IL-1a HTRF, actives lie on both sides, screened at 100 nM (by protocol), cells primed 5 h with Pam3CSK4 first;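 also: robust z of the log signal after scaling to non-targeting control siRNA wells of the plate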
Procedure, shortened: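 Knockdown: 100 nM siRNA, 48h, RAW264.7. Stimulation: Pam3CSK4 5 h, then LipidA via TransIT-TKO 24 h. Output: supernatant IL-1a HTRF, negative-control-normalized, log robust z-score; viability by CellTiter-Glo.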

Sequence | z-score
GGUCUGUAACUGGUUCAUCTT against Tgif1 | inactive: 0.255
GGACUUACUCUCUCCGUGUTT against Marchf3 | inactive: 0.608
GCUACAAUUGGCCUUAUCUTT against Stpg2 | active: -3.03
GGGUUCAAGAAAUGAUAAUTT against F11 | inactive: 0.534
GCAGUAUAACUAUCUGAAATT against Rgp1 | inactive: 1.24
GCAAAAGUAAGGAGUCUAUTT against Clcn4 | inactive: -0.0173
GGCAACUUUGUUAUAUACATT against Ctr9 | inactive: 0.212
GGCUAUGUAGAUGGUUUUGTT against B830017H08Rik | active: 2.65
CCUGGACAACCAACACUUATT against Pex13 | inactive: 1.2
GGAUUUGGCCAACUCACCCTT against Acpp | inactive: 1.64
GGUUCCUAGAAAGAAAGUGTT against Pla2g15 | inactive: 0.0698
GGAGUUCCUGGAGAAGAAATT against Chmp4b | inactive: -0.61
GAUCUUGGUUAUUCUACAUTT against Olfr1047 | inactive: 0.0987
GAGCUGCUAAUGGAACCCUTT against Rhbdd3 | inactive: -1.53
GCAAAAAUCGACUAAAGAGTT against Lingo2 | inactive: -0.362
GGAGCUUCGAAACUACAUGTT against Tmem132a | inactive: -0.679
GGACCUACAGCAUGGUAACTT against Pex3 | inactive: -1.02
GGAUAGCUGCGUAUGCCUATT against Lamtor1 | inactive: -0.391
GGAGCUGUGGAAGAAGUUCTT against Tbx4 | inactive: -0.384
GGGAGAAUAUCAUGACCAATT against E330018D03Rik | inactive: 0.833
GGCACAAGUAAAGGUAGUCTT against A26c3 | inactive: 1.01
GGACCAGAAACUGUAUGCATT against Wrn | inactive: -0.7

As entered above.
GGACCAGAAACUGUAUGCATT against Wrn – z-score: inactive: -0.7
GAUCUUGGUUAUUCUACAUTT against Olfr1047 – z-score: inactive: 0.0987

(list continues)

Sequence | z-score
GGCCUUCAAAUCAUACGCUTT against Ms4a19 | inactive: 0.283
GCUUGUACGAUGUUACCCATT against Fbxo32 | inactive: 0.673
GGAGUCGUAUGAUAACAGATT against Cir1 | inactive: 0.192
GGCUCACGAGGAACUAAAUTT against Ift52 | inactive: 0.115
GCCAAAUUAGCAGCUUGUGTT against Rln3 | inactive: -0.0674
GGACAGAAAGAACUUGUCGTT against Sema5a | inactive: -0.773
CGCAGCAGUUGUGGUCAAUTT against Nnat | inactive: -1.23
GGUAAAAUUCCAGAGUUGUTT against Serpinb9 | inactive: -0.412
GGACAAGAGGCUUUCAUAUTT against Gabrb1 | inactive: -0.405
GGGAGAUUUGUUCUAGUUUTT against E2f2 | inactive: -0.402
GGAGCAUUAGUCAUUGUUATT against Hsd17b4 | inactive: 1.82
GGAAAGUGGAAGACAUUUUTT against Olfr1324 | inactive: 0.0724
GGAUAGACUGGACAGCAGCTT against Retn | inactive: -0.276
GGGAGAUGCAACCUCUCUUTT against Dennd5b | active: 2.91
GGACAUGGUCCUUCCUAAATT against Arl8b | inactive: 0.944
GGUGAUCUUCAAAUUGGAGTT against Zfp90 | inactive: -1.19
GGACUGUUUUGUCUUGAAGTT against Gm5124 | inactive: -1.04
UCGACUACCUUUGAGUCAGTT against Hoxa4 | inactive: -0.107
GUUUCAAGUAUGUUCUGCATT against A430072C10Rik | inactive: -0.476
CGGUACAGGGUAAAGGACATT against Prss41 | inactive: 0.00568
GGAAUGUACCAGAAAUACUTT against 4921504E06Rik | active: 3.01
GGAAGAUGGAUUGUUUCUUTT against F5 | inactive: 0.653

Sequence | z-score
CCGCAUCCAGGUUACUACATT against Adcy5 | inactive: 1.04
GCUUGCAUGUACAGACAUUTT against Olfr517 | inactive: 0.398
GGAGCUGUUCAGACCCAUUTT against E2f7 | inactive: -0.209
AACCAUGAUGCUUACGUUUTT against S100a10 | inactive: 0.285
GUUGCUCAAAGUGUCCAAGTT against Rpl36 | inactive: 0.994
CCUAAACCUUUAAAUCAGUTT against Gsdma | inactive: -0.448
GCUUGCUUGACCUAACUAGTT against Fbxo41 | inactive: 1.32
GGAAUUACGAAGCUGUGUGTT against Cdkl3 | active: -2.36
GGCUUCUGAUCUUACCUGGTT against Smim12 | inactive: 0.683
CCACACUGCAGUGUCAGAATT against Olfr490 | inactive: 1.82
GCAGGCCUACCUUACCCUATT against Adam32 | inactive: -0.264
GGACAUGACUCUAAAAAAATT against Slc44a3 | active: 4.43
GGUUAAUGCCCGAUGAAGGTT against Gdap1 | inactive: -0.546
CGUUCUAUGGAAACUGGAGTT against Acot1 | active: 2.42
GGUAUUUCCUAAGUUGCGCTT against Sgsm1 | inactive: 1.34
CCGAAUGUGCCUUUAAGAATT against Sema4a | inactive: 1.06
GCUCACCAAGGUCAACUUUTT against Pramel37 | inactive: 0.363
GGCUUUUGGAGAAAAAGGATT against Nus1 | inactive: 1.92
GGUUUUUGAGCCAUAUCCATT against Fam122b | inactive: -0.817
CCCUUUAAUACAUACAGUUTT against Mesp2 | inactive: 1.14
GCCACAACUUAAUUUUCUGTT against Nav3 | inactive: -0.305
CGCAUUUGAAGUGUUCGACTT against Efcab2 | inactive: 0.195

In a second layout: entries from further up

| Sequence | z-score |
| --- | --- |
| CCACACUGCAGUGUCAGAATT against Olfr490 | inactive: 1.82 |
| GCAGGCCUACCUUACCCUATT against Adam32 | inactive: -0.264 |
| GGACAUGACUCUAAAAAAATT against Slc44a3 | active: 4.43 |
| GGUUAAUGCCCGAUGAAGGTT against Gdap1 | inactive: -0.546 |

Additional records.

Sequence | z-score
GGUAGUGUGAUCAAGACACTT against Spred2 | inactive: 1.08
GCACAGUCACUAGCUGAAUTT against Prr27 | inactive: 1.1
GGCACAAGGCAACUGACUATT against Atp2a1 | inactive: -1.44
GGUCCUAGGCCUACUCAUCTT against Cd46 | inactive: -0.318
GGAUUUUCCAGCCAAGGAATT against Smpd4 | inactive: 0.364
GGACAAAGAAGAUUCCAUUTT against Ctps2 | inactive: 0.747
GGACCUCAUGAGAAAUAUGTT against Galnt17 | inactive: 0.871
GAGUGCAUUCUUUUGGCAUTT against Olfr5 | inactive: 0.508
GAGCUGAAGAAGUGCUCUUTT against Rarres2 | inactive: -1.62
GGCAGUACAACUGGUCUACTT against 0610040J01Rik | active: 2.21
CUCUCGAACAAUCAACCACTT against Olfr315 | active: 2.05
GCUGGCUAGCCAUAACCAUTT against Spata21 | inactive: 1.02
GCAAGUGAGUUAGCAGUCATT against Atp2c1 | active: -2.23
GCAACGAUCUGAGAAAAUUTT against Intu | inactive: -0.593
GGUCAUUUCCUUCGCUGGATT against Olfr739 | inactive: -0.962
GGAUUUGUGUCCAUCGUGCTT against Olfr66 | inactive: 0.00905
GGAGCUGUCUCUACGAAACTT against Myoz3 | inactive: 1.27
GGGAGAAAUUCUGUAUUCATT against Aldh5a1 | inactive: -1.1
GGAGUCUAAGUUAUAAUCUTT against Mtg1 | inactive: 2
GCCGAUGAAGCCUUAUUGCTT against Bfsp1 | inactive: 0.624
GCGACUGAGUGACUAUGCUTT against Kcnn3 | inactive: -1.59
GCAGGUUAGAGUCACUUGUTT against Trim67 | inactive: 0.143

Sequence | z-score
GGUUCCUACGCUUCAUUCCTT against Cntnap4 | inactive: 1.35
GGAGUCUUAAAAGCAAAGATT against Serpinb11 | inactive: -0.0719
GGCUCAAAGAAUAUGCCAATT against Rad54b | inactive: 0.99
GCCAGAAUUUUAGCUAGUATT against Steap4 | inactive: 0.338
GUUAACCAAAACAAAGGCUTT against H2ac4 | inactive: -1.02
CGUGUGUUACUUCUCAGACTT against Crtam | inactive: 1.15
GAUUACCCAACGUACAGCUTT against Krt74 | inactive: -1.1
GGUCCUACAUAAUACAACATT against Myo19 | inactive: 0.902
CGGAUAUUUGGCAUGGUCCTT against Slc5a4b | inactive: 1.25
GGCAACAACACAUUCAGAGTT against Enah | inactive: 0.713
GGAGCCUGUCUUUUAUUGATT against Olfr938 | inactive: 0.0765
GGGAUGCACUGAGUGAAGATT against Scg2 | inactive: -0.319
GGAAAUUGUACUCUCCACATT against Pdzd11 | inactive: -0.941
CUCUGAACGACCUAUACCUTT against Cebpd | inactive: -1.21
CCAAGCUAGUCCUCAAGCUTT against Snapc2 | inactive: -1.16
GGAACUACAGAAUUUAUUGTT against Rfx6 | inactive: 0.628
GGUCUAUGUGUGGAUGGAATT against Crb1 | inactive: 1.83
GGAUUCACACAGAGGUAAATT against Zfp169 | inactive: -0.215
GCCGACAGAUCGUCUUGAUTT against Tmc4 | inactive: 1.31

Reference: PubChem BioAssay AID1508600 (Functional Genomics Laboratory (NCATS/FGL), 2020)
